Laboratory results from PMC12406255 (Journal of Medicinal Chemistry, 2025).
Strings that start with PEPTIDE1 are HELM notation: dots part the residues, brackets hold end groups and non-standard residues. The same purity stands for every peptide and may come from a single statement.

Assay: general procedure: Fmoc solid-phase peptide synthesis; Rink amide resin (VhTI-pepitem grafts)
Details: whole synthesis, 214 nm

Final HPLC purity, >95%:
PEPTIDE1{[ac].E.Q.C.K.V.[Nle].C.Y.E.Q.G.A.E.L.P.E.L.L.R.R.C.L.D.N.C.E.K.[am]}$PEPTIDE1,PEPTIDE1,4:R3-26:R3|PEPTIDE1,PEPTIDE1,8:R3-22:R3$$$V2.0
PEPTIDE1{[ac].E.Q.C.K.V.[Nle].C.Y.Q.G.A.E.L.S.P.E.L.L.R.R.C.L.D.N.C.E.K.[am]}$PEPTIDE1,PEPTIDE1,4:R3-26:R3|PEPTIDE1,PEPTIDE1,8:R3-22:R3$$$V2.0
PEPTIDE1{[ac].E.Q.C.K.V.[Nle].C.Y.A.Q.R.H.S.S.P.E.L.L.R.R.C.L.D.N.C.E.K.[am]}$PEPTIDE1,PEPTIDE1,4:R3-26:R3|PEPTIDE1,PEPTIDE1,8:R3-22:R3$$$V2.0
PEPTIDE1{[ac].E.Q.C.K.V.[Nle].C.Y.A.Q.G.A.E.L.P.E.L.L.R.R.C.L.D.N.C.E.K.[am]}$PEPTIDE1,PEPTIDE1,4:R3-26:R3|PEPTIDE1,PEPTIDE1,8:R3-22:R3$$$V2.0
PEPTIDE1{[ac].E.Q.C.S.V.T.C.E.Q.G.A.E.L.P.S.N.E.E.R.C.L.D.N.C.E.K.[am]}$PEPTIDE1,PEPTIDE1,4:R3-25:R3|PEPTIDE1,PEPTIDE1,8:R3-21:R3$$$V2.0
PEPTIDE1{S.V.T.E.Q.G.A.E.L.S.N.E.E.R}$$$$V2.0
PEPTIDE1{[ac].E.Q.C.K.V.[Nle].C.Y.E.Q.G.A.L.S.P.E.L.L.R.R.C.L.D.N.C.E.K.[am]}$PEPTIDE1,PEPTIDE1,4:R3-26:R3|PEPTIDE1,PEPTIDE1,8:R3-22:R3$$$V2.0
PEPTIDE1{[ac].E.Q.C.K.V.[Nle].C.Y.A.Q.G.A.E.L.S.P.E.L.L.R.R.C.L.D.N.C.E.K.[am]}$PEPTIDE1,PEPTIDE1,4:R3-27:R3|PEPTIDE1,PEPTIDE1,8:R3-23:R3$$$V2.0
